Assay results: article PMC11490714
No constants are given. Whether binding was seen depends on the method and setting. Binding seen in cells or lysates may run through a third protein. A yes stands for co-enrichment or nearness to the bait. Other partners may have been found. Sequences can lack the tags named with a protein. Values belong to the molecule of their own block, whether it stands above or below them.

Protein sequences, listed by entry. Tags and fused reporters are not part of them.
UniProt Q96GD4: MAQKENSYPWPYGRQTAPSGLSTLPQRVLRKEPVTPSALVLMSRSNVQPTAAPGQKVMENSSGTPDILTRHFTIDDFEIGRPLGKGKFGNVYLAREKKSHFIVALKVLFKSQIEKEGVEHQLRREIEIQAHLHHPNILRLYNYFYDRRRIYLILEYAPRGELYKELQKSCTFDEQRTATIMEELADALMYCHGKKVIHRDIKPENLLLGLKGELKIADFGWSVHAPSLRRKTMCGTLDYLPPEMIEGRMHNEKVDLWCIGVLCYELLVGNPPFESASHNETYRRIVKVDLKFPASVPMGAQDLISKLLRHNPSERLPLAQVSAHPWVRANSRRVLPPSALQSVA
UniProt Q16531: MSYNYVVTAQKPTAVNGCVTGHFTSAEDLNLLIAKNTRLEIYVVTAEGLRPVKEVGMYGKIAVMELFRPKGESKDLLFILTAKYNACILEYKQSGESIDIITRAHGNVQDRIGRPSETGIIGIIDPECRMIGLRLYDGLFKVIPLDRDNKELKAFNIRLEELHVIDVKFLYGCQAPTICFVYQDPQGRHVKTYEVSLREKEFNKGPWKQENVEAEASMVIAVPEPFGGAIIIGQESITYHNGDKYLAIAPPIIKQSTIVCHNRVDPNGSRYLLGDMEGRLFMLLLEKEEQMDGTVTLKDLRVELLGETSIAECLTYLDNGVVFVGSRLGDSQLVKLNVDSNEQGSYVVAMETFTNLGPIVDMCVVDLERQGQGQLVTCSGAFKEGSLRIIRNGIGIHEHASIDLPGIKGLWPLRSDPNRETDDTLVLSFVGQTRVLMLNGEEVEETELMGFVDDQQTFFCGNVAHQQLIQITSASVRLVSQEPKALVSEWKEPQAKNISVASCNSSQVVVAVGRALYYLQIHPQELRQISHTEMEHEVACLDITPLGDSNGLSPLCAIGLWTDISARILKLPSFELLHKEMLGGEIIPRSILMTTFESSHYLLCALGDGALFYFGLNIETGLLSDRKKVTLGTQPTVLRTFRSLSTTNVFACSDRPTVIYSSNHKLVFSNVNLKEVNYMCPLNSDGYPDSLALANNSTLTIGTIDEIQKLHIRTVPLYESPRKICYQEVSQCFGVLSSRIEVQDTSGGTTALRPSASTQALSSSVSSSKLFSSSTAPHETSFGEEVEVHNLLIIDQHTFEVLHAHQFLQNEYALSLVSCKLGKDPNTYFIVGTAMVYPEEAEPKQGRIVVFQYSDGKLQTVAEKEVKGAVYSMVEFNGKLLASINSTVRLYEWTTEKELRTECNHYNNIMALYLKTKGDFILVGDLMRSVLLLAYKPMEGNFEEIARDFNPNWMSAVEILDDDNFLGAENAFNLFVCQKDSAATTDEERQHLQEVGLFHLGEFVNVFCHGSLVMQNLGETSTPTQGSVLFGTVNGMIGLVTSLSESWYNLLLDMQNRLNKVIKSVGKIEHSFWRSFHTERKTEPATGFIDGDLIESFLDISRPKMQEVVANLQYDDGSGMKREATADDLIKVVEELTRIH
UniProt Q9UHD2: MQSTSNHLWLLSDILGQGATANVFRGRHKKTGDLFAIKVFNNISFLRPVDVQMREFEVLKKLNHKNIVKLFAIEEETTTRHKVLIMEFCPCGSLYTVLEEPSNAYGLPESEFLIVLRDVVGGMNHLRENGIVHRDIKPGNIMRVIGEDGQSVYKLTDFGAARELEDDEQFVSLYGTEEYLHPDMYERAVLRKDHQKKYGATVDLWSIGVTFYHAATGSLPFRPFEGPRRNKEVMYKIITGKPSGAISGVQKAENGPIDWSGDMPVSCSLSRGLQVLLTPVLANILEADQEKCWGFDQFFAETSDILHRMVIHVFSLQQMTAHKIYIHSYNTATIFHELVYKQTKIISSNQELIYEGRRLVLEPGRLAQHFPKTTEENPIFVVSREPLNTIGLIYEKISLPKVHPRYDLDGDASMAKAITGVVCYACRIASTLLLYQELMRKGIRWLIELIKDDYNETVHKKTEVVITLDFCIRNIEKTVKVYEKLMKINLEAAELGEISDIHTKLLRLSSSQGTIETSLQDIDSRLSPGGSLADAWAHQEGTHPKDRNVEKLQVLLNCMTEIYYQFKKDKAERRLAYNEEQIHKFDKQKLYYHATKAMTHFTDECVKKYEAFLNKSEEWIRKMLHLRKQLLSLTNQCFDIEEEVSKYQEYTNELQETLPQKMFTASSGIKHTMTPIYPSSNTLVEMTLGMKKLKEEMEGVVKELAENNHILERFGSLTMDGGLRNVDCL
UniProt Q92560: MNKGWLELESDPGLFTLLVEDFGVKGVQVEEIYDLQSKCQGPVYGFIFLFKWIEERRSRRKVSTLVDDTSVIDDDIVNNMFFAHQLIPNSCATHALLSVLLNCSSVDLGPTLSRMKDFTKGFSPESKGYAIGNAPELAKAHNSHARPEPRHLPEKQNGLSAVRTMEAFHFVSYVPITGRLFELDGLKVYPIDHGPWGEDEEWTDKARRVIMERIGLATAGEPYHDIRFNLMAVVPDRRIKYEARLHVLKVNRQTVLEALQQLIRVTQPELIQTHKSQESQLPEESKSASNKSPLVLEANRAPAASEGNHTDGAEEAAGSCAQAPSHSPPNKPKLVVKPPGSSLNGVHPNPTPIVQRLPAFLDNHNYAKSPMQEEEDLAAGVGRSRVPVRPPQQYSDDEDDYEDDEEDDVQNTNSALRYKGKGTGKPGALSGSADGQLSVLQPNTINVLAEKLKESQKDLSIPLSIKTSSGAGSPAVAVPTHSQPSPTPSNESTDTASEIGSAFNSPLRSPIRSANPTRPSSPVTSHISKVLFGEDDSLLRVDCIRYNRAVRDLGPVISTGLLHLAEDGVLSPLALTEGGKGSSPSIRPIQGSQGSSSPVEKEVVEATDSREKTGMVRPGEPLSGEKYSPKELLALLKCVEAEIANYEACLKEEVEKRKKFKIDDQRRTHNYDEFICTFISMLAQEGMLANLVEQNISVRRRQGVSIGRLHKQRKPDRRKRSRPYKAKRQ
UniProt Q7KZI7: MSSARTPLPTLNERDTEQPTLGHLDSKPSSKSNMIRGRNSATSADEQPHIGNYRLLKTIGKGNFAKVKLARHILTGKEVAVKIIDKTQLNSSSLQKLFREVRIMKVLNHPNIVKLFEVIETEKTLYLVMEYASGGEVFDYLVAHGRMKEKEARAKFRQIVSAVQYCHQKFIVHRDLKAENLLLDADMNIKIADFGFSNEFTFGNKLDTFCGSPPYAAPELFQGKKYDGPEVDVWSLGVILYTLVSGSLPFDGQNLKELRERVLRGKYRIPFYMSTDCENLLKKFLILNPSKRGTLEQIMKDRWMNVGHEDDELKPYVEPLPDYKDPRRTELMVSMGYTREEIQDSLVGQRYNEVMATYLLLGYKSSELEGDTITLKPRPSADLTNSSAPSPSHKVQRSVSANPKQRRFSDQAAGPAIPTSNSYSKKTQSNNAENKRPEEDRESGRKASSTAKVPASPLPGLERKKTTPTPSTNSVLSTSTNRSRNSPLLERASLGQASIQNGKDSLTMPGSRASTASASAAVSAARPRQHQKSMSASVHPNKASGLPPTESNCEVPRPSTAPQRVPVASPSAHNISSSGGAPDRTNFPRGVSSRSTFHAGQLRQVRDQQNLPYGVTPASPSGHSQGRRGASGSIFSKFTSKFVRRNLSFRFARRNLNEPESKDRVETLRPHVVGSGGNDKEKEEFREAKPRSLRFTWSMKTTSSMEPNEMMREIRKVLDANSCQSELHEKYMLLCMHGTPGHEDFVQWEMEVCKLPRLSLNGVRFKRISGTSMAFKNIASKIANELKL
UniProt Q93008: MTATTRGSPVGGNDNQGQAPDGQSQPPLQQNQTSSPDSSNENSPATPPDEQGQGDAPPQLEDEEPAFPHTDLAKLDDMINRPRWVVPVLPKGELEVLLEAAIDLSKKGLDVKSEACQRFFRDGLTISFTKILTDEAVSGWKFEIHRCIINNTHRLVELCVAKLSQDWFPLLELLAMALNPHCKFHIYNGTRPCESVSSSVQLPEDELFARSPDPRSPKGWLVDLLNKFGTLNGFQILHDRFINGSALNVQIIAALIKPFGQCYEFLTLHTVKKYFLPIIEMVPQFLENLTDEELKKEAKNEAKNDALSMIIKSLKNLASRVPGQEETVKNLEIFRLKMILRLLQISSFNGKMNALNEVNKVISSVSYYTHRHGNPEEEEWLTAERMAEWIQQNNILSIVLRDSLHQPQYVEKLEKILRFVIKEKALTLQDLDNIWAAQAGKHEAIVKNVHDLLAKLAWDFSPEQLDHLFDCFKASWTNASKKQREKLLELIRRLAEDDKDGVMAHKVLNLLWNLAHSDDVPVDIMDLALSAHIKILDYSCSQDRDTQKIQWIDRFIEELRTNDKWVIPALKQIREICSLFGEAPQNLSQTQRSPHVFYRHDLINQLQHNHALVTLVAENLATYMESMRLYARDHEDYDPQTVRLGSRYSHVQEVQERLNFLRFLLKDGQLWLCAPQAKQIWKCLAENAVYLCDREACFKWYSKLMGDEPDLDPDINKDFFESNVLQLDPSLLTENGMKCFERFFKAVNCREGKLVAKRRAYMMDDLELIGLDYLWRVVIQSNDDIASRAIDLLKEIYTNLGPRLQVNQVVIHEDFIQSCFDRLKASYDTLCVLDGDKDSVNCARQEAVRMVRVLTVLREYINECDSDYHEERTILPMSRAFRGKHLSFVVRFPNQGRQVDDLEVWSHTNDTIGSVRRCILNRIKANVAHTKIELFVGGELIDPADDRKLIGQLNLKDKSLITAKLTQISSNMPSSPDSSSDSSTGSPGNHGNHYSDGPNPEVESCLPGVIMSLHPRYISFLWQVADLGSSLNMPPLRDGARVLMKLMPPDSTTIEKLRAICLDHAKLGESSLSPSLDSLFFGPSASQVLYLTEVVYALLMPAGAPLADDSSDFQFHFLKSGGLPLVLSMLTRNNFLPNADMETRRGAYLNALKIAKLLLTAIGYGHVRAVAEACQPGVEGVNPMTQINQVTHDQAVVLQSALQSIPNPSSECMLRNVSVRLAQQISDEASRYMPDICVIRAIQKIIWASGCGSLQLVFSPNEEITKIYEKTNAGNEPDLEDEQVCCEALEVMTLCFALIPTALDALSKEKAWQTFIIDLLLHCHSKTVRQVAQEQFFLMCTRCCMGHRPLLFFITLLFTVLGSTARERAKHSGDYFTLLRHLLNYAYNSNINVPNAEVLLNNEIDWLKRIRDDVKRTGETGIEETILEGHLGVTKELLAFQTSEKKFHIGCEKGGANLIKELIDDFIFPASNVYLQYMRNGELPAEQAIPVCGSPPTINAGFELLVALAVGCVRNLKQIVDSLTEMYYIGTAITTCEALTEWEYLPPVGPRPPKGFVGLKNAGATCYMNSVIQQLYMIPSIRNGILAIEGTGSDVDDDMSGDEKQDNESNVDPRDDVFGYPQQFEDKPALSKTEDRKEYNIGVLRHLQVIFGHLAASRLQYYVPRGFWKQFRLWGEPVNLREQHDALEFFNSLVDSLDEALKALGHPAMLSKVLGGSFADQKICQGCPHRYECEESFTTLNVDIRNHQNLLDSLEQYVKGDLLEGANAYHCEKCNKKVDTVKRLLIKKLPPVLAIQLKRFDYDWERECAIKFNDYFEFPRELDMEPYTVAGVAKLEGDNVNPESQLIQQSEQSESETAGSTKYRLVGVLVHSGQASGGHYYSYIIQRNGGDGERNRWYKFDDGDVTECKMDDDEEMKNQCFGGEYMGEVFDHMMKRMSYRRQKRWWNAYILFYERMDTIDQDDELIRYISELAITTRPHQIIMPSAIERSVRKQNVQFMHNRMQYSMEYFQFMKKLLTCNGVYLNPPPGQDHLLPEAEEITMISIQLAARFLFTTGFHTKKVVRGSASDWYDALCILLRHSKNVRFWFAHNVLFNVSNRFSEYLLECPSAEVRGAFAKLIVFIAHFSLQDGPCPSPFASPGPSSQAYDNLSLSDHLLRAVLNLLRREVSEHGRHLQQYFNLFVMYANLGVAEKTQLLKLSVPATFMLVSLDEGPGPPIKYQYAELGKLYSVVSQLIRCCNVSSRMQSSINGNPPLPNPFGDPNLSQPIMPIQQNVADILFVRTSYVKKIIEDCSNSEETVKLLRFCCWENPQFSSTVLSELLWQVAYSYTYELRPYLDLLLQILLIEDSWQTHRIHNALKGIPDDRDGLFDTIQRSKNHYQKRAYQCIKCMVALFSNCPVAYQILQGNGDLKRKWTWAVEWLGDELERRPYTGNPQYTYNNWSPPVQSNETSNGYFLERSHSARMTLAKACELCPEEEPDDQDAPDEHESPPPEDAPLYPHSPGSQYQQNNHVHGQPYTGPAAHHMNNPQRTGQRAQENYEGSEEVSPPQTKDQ

Target: T1, FLAG-RBM39 (human) (UniProt Q14498)
T1 sequence: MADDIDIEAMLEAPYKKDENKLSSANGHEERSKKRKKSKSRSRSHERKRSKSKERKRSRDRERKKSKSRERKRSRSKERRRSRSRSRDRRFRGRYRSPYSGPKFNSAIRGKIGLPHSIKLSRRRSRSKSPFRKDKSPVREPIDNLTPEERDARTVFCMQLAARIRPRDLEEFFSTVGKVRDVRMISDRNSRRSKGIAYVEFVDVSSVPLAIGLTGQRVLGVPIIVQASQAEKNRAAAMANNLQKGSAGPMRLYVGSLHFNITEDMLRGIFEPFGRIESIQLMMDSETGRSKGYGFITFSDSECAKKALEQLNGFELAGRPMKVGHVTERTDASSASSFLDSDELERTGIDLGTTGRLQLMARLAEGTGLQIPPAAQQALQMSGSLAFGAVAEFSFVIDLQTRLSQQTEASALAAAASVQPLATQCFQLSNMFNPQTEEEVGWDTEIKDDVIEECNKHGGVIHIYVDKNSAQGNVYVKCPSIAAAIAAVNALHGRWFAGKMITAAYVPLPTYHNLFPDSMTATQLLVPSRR
Experiment: affinity purification with mass spectrometry; HEK293T transfected with pcDNA3.1 or FLAG-RBM39 for 48 h, lysed in modified radioimmunoprecipitation assay buffer; anti-FLAG affinity gel; SDS-PAGE, in-gel trypsin digest, label-free quantification, three biological replicates

Molecule: AURKB (from UniProt Q96GD4 1-344) (enzyme)
- binding: binds

Molecule: BRD7 (from UniProt Q9NPI1 1-651)
- binding: binds

Molecule: DNA damage-binding protein 1 (DDB1) (from UniProt Q16531 1-1140)
- binding: binds

Molecule: KEAP1 (from UniProt Q14145 1-624)
- binding: binds

Molecule: KMT2A (from UniProt Q03164 1-3969) (enzyme)
- binding: binds

Molecule: TBK1 (from UniProt Q9UHD2 1-729) (enzyme)
- binding: binds

Molecule: ZNF92 (from UniProt Q03936 1-586)
- binding: binds

Molecule: cullin 4A (from UniProt Q13619 1-759)
- binding: binds

Molecule: cullin 4B (from UniProt Q13620 1-913)
- binding: binds

B1: UHRF1 (enzyme, UniProt Q96T88 1-793)
chain: MWIQVRTMDGRQTHTVDSLSRLTKVEELRRKIQELFHVEPGLQRLFYRGKQMEDGHTLFDYEVRLNDTIQLLVRQSLVLPHSTKERDSELSDTDSGCCLGQSESDKSSTHGEAAAETDSRPADEDMWDETELGLYKVNEYVDARDTNMGAWFEAQVVRVTRKAPSRDEPCSSTSRPALEEDVIYHVKYDDYPENGVVQMNSRDVRARARTIIKWQDLEVGQVVMLNYNPDNPKERGFWYDAEISRKRETRTARELYANVVLGDDSLNDCRIIFVDEVFKIERPGEGSPMVDNPMRRKSGPSCKHCKDDVNRLCRVCACHLCGGRQDPDKQLMCDECDMAFHIYCLDPPLSSVPSEDEWYCPECRNDASEVVLAGERLRESKKKAKMASATSSSQRDWGKGMACVGRTKECTIVPSNHYGPIPGIPVGTMWRFRVQVSESGVHRPHVAGIHGRSNDGAYSLVLAGGYEDDVDHGNFFTYTGSGGRDLSGNKRTAEQSCDQKLTNTNRALALNCFAPINDQEGAEAKDWRSGKPVRVVRNVKGGKNSKYAPAEGNRYDGIYKVVKYWPEKGKSGFLVWRYLLRRDDDEPGPWTKEGKDRIKKLGLTMQYPEGYLEALANREREKENSKREEEEQQEGGFASPRTGKGKWKRKSAGGGPSRAGSPRRTSKKTKVEPYSLTAQQSSLIREDKSNAKLWNEVLASLKDRPASGSPFQLFLSKVEETFQCICCQELVFRPITTVCQHNVCKDCLDRSFRAQVFSCPACRYDLGRSYAMQVNQPLQTVLNQLFPGYGNGR
- binding: binds

B2: MID1 (enzyme, UniProt O15344 1-667)
chain: METLESELTCPICLELFEDPLLLPCAHSLCFNCAHRILVSHCATNESVESITAFQCPTCRHVITLSQRGLDGLKRNVTLQNIIDRFQKASVSGPNSPSETRRERAFDANTMTSAEKVLCQFCDQDPAQDAVKTCVTCEVSYCDECLKATHPNKKPFTGHRLIEPIPDSHIRGLMCLEHEDEKVNMYCVTDDQLICALCKLVGRHRDHQVAALSERYDKLKQNLESNLTNLIKRNTELETLLAKLIQTCQHVEVNASRQEAKLTEECDLLIEIIQQRRQIIGTKIKEGKVMRLRKLAQQIANCKQCIERSASLISQAEHSLKENDHARFLQTAKNITERVSMATASSQVLIPEINLNDTFDTFALDFSREKKLLECLDYLTAPNPPTIREELCTASYDTITVHWTSDDEFSVVSYELQYTIFTGQANVVSLCNSADSWMIVPNIKQNHYTVHGLQSGTKYIFMVKAINQAGSRSSEPGKLKTNSQPFKLDPKSAHRKLKVSHDNLTVERDESSSKKSHTPERFTSQGSYGVAGNVFIDSGRHYWEVVISGSTWYAIGLAYKSAPKHEWIGKNSASWALCRCNNNWVVRHNSKEIPIEPAPHLRRVGILLDYDNGSIAFYDALNSIHLYTFDVAFAQPVCPTFTVWNKCLTIITGLPIPDHLDCTEQLP
- binding: binds

B3: USP36 (enzyme, UniProt Q9P275 1-1123)
chain: MPIVDKLKEALKPGRKDSADDGELGKLLASSAKKVLLQKIEFEPASKSFSYQLEALKSKYVLLNPKTEGASRHKSGDDPPARRQGSEHTYESCGDGVPAPQKVLFPTERLSLRWERVFRVGAGLHNLGNTCFLNATIQCLTYTPPLANYLLSKEHARSCHQGSFCMLCVMQNHIVQAFANSGNAIKPVSFIRDLKKIARHFRFGNQEDAHEFLRYTIDAMQKACLNGCAKLDRQTQATTLVHQIFGGYLRSRVKCSVCKSVSDTYDPYLDVALEIRQAANIVRALELFVKADVLSGENAYMCAKCKKKVPASKRFTIHRTSNVLTLSLKRFANFSGGKITKDVGYPEFLNIRPYMSQNNGDPVMYGLYAVLVHSGYSCHAGHYYCYVKASNGQWYQMNDSLVHSSNVKVVLNQQAYVLFYLRIPGSKKSPEGLISRTGSSSLPGRPSVIPDHSKKNIGNGIISSPLTGKRQDSGTMKKPHTTEEIGVPISRNGSTLGLKSQNGCIPPKLPSGSPSPKLSQTPTHMPTILDDPGKKVKKPAPPQHFSPRTAQGLPGTSNSNSSRSGSQRQGSWDSRDVVLSTSPKLLATATANGHGLKGNDESAGLDRRGSSSSSPEHSASSDSTKAPQTPRSGAAHLCDSQETNCSTAGHSKTPPSGADSKTVKLKSPVLSNTTTEPASTMSPPPAKKLALSAKKASTLWRATGNDLRPPPPSPSSDLTHPMKTSHPVVASTWPVHRARAVSPAPQSSSRLQPPFSPHPTLLSSTPKPPGTSEPRSCSSISTALPQVNEDLVSLPHQLPEASEPPQSPSEKRKKTFVGEPQRLGSETRLPQHIREATAAPHGKRKRKKKKRPEDTAASALQEGQTQRQPGSPMYRREGQAQLPAVRRQEDGTQPQVNGQQVGCVTDGHHASSRKRRRKGAEGLGEEGGLHQDPLRHSCSPMGDGDPEAMEESPRKKKKKKRKQETQRAVEEDGHLKCPRSAKPQDAVVPESSSCAPSANGWCPGDRMGLSQAPPVSWNGERESDVVQELLKYSSDKAYGRKVLTWDGKMSAVSQDAIEDSRQARTETVVDDWDEEFDRGKEKKIKKFKREKRRNFNAFQKLQTRRNFWSVTHPAKAASLSYRR
- binding: binds

Other lines, results leading:

- binding: binds
Molecule: BAP1 (from UniProt Q92560 1-729) (enzyme)

- binding: binds
Molecule: E3 ubiquitin/ISG15 ligase TRIM25 (from UniProt Q14258 1-630) (enzyme)

- binding: binds
Molecule: HUWE1 (from UniProt Q7Z6Z7 1-4374) (enzyme)

- binding: binds
Molecule: JUN (from UniProt P05412 1-331)

- binding: binds
Molecule: MARK2 (from UniProt Q7KZI7 1-788) (enzyme)

- binding: binds
Molecule: USP7 (from UniProt Q93009 1-1102) (enzyme)

- binding: binds
Molecule: USP9X (from UniProt Q93008 1-2554) (enzyme)

- binding: binds
Molecule: USP24 (from UniProt Q9UPU5 1-2620) (enzyme)

- binding: binds
Molecule: ZFP62 (from UniProt Q8NB50 1-900)

- binding: binds
Molecule: splicing factor 3B subunit 1 (SF3B1) (from UniProt O75533 1-1304)

- binding: binds
B4: USP42 (enzyme, UniProt Q9H9J4 1-1324)
chain: MTIVDKASESSDPSAYQNQPGSSEAVSPGDMDAGSASWGAVSSLNDVSNHTLSLGPVPGAVVYSSSSVPDKSKPSPQKDQALGDGIAPPQKVLFPSEKICLKWQQTHRVGAGLQNLGNTCFANAALQCLTYTPPLANYMLSHEHSKTCHAEGFCMMCTMQAHITQALSNPGDVIKPMFVINEMRRIARHFRFGNQEDAHEFLQYTVDAMQKACLNGSNKLDRHTQATTLVCQIFGGYLRSRVKCLNCKGVSDTFDPYLDITLEIKAAQSVNKALEQFVKPEQLDGENSYKCSKCKKMVPASKRFTIHRSSNVLTLSLKRFANFTGGKIAKDVKYPEYLDIRPYMSQPNGEPIVYVLYAVLVHTGFNCHAGHYFCYIKASNGLWYQMNDSIVSTSDIRSVLSQQAYVLFYIRSHDVKNGGELTHPTHSPGQSSPRPVISQRVVTNKQAAPGFIGPQLPSHMIKNPPHLNGTGPLKDTPSSSMSSPNGNSSVNRASPVNASASVQNWSVNRSSVIPEHPKKQKITISIHNKLPVRQCQSQPNLHSNSLENPTKPVPSSTITNSAVQSTSNASTMSVSSKVTKPIPRSESCSQPVMNGKSKLNSSVLVPYGAESSEDSDEESKGLGKENGIGTIVSSHSPGQDAEDEEATPHELQEPMTLNGANSADSDSDPKENGLAPDGASCQGQPALHSENPFAKANGLPGKLMPAPLLSLPEDKILETFRLSNKLKGSTDEMSAPGAERGPPEDRDAEPQPGSPAAESLEEPDAAAGLSSTKKAPPPRDPGTPATKEGAWEAMAVAPEEPPPSAGEDIVGDTAPPDLCDPGSLTGDASPLSQDAKGMIAEGPRDSALAEAPEGLSPAPPARSEEPCEQPLLVHPSGDHARDAQDPSQSLGAPEAAERPPAPVLDMAPAGHPEGDAEPSPGERVEDAAAPKAPGPSPAKEKIGSLRKVDRGHYRSRRERSSSGEPARESRSKTEGHRHRRRRTCPRERDRQDRHAPEHHPGHGDRLSPGERRSLGRCSHHHSRHRSGVELDWVRHHYTEGERGWGREKFYPDRPRWDRCRYYHDRYALYAARDWKPFHGGREHERAGLHERPHKDHNRGRRGCEPARERERHRPSSPRAGAPHALAPHPDRFSHDRTALVAGDNCNLSDRFHEHENGKSRKRRHDSVENSDSHVEKKARRSEQKDPLEEPKAKKHKKSKKKKKSKDKHRDRDSRHQQDSDLSAACSDADLHRHKKKKKKKKRHSRKSEDFVKDSELHLPRVTSLETVAQFRRAQGGFPLSGGPPLEGVGPFREKTKHLRMESRDDRCRLFEYGQGKRRYLELGR

- binding: binds
B5: endogenous USP39 (enzyme, UniProt Q53GS9 1-565)
chain: MSGRSKRESRGSTRGKRESESRGSSGRVKRERDREREPEAASSRGSPVRVKREFEPASAREAPASVVPFVRVKREREVDEDSEPEREVRAKNGRVDSEDRRSRHCPYLDTINRSVLDFDFEKLCSISLSHINAYACLVCGKYFQGRGLKSHAYIHSVQFSHHVFLNLHTLKFYCLPDNYEIIDSSLEDITYVLKPTFTKQQIANLDKQAKLSRAYDGTTYLPGIVGLNNIKANDYANAVLQALSNVPPLRNYFLEEDNYKNIKRPPGDIMFLLVQRFGELMRKLWNPRNFKAHVSPHEMLQAVVLCSKKTFQITKQGDGVDFLSWFLNALHSALGGTKKKKKTIVTDVFQGSMRIFTKKLPHPDLPAEEKEQLLHNDEYQETMVESTFMYLTLDLPTAPLYKDEKEQLIIPQVPLFNILAKFNGITEKEYKTYKENFLKRFQLTKLPPYLIFCIKRFTKNNFFVEKNPTIVNFPITNVDLREYLSEEVQAVHKNTTYDLIANIVHDGKPSEGSYRIHVLHHGTGKWYELQDLQVTDILPQMITLSEAYIQIWKRRDNDETNQQGA
